In patent publication US20250313596A1, “BACILLUS SUBTILIS STRAINS PRODUCING NEW MYCOSUBTILIN ISOFORMS” (Universite de Lille, priority 2022, published 2025):
Converted amounts (≈) assume the structure as drawn. Part of at least one peptide drawing is inferred or uncertain, most often the ends.

Experiments:
Format in all cases: cell-based
B. cinerea = test system: B. cinerea
Method: (§1) Three different fungal strains were tested for their antifungal activity: B. cinerea, Aspergillus sp. and Z. tritici. In addition to the two conventional isoforms, three new isoforms are being tested for their antifungal properties. A range of concentrations (μg a.i./ml or ppm) 0; 0.0037; 0.0146; 0.0586; 0.2344; 0.9375; 3.75 and 15 is used to determine the activity coefficient. Based on this concentration range, the EC50 (concentration that reduces fungal strain growth by 50%) and EC95 (concentration that reduces pathogen growth by 95%) were calculated and presented as disclosed in Table 5.
4.1 Antifungal Activity on B. cinerea

Aspergillus sp. = conditions: for antifungal efficacy in words: Aspergillus sp.; for ECS0 (μg/ml) Aspergillus sp.: concentration that reduces fungal strain growth by 50%; for EC95 (μg/ml) Aspergillus sp.: concentration that reduces pathogen growth by 95%
Method: as §1
4.2 Antifungal Activity on Aspergillus sp.

Z. tritici = test system: Z. tritici
Method: as §1
4.3 Antifungal Activity on Z. Tritici

[1] = concentration that reduces pathogen growth by 95%
[2] = concentration that reduces fungal strain growth by 50%

| Structure (SMILES) | EC95 value (B. cinerea; B. cinerea) [ppm] | antifungal efficacy in words (B. cinerea; B. cinerea) | antifungal efficacy in words (Aspergillus sp.) | ECS0 (μg/ml) Aspergillus sp. (Aspergillus sp.) [µg/mL] | EC95 (μg/ml) Aspergillus sp. (Aspergillus sp.) [µg/mL] | antifungal efficacy in words (Z. tritici; Z. tritici) | EC95 (μg/ml) Z. tritici (Z. tritici; [1]) [µg/mL] | ECS0 (μg/ml) B. cinerea (B. cinerea; [2]) [µg/mL] | EC95 (μg/ml) B. cinerea (B. cinerea; [1]) [µg/mL] | EC95 value (Z. tritici; Z. tritici) [ppm] | ECS0 (μg/ml) Z. tritici (Z. tritici; [2]) [µg/mL] |
| --- | --- | --- | --- | --- | --- | --- | --- | --- | --- | --- | --- |
| CCCCCCCCCCCCCC1CC(=O)N[C@@H](CCC(N)=O)C(=O)N[C@H](Cc2ccc(O)cc2)C(=O)N[C@H](CC(N)=O)C(=O)N[C@@H](CCC(N)=O)C(=O)N2CCC[C@H]2C(=O)N[C@H](CO)C(=O)N[C@@H](CC(N)=O)C(=O)N1 (stereo partly shown) [Gln1-C16] | 1.282 | effective against this fungal strain | effective against this fungal strain, but at higher concentrations | 1.691 | 3.040 (≈ 2.8 µM) | effective against this fungal strain | 24.286 (≈ 22.4 µM) |  |  |  |  |
| CCCCCCCCCCCCCC1CC(=O)N[C@@H](CC(N)=O)C(=O)N[C@H](Cc2ccc(O)cc2)C(=O)N[C@H](CCC(N)=O)C(=O)N[C@@H](CCC(N)=O)C(=O)N2CCC[C@H]2C(=O)N[C@H](CO)C(=O)N[C@@H](CC(N)=O)C(=O)N1 (stereo partly shown) [Gln3-C16] |  | effective against this fungal strain, but at higher concentrations | effective against this fungal strain, but at higher concentrations | 13.148 | 14.772 (≈ 13.6 µM) | effective against this fungal strain |  | 9.918 | 14.232 (≈ 13.1 µM) | 17.874 | 10.077 |
